# Measurements published in the supplement of paper PMC8728848.
# The list shows a part of the results.
# Experiments:
# Assay in all cases: glycan array binding signal (z-score within array); higher = stronger binding
# Details in all cases: glycan notation: IUPAC condensed, linker removed
# [1] = molecular target: Gal(b1-4)Glc
# Summary of the method: (§1)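 The binding signal is a Z-score computed within each array and averaged over linkers. Arrays of the same protein sequence at different concentrations or buffers were also averaged together. Data originate from 3228 arrays in the Consortium for Functional Glycomics database, kept only where the protein sequence was available.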
# [2] = molecular target: Gal(b1-4)Glc6S
# Summary of the method: as §1
# [3] = molecular target: Gal(b1-4)GlcNAc
# Summary of the method: as §1
# [4] = molecular target: Gal(b1-4)GlcNAc(a1-6)Gal(b1-4)GlcNAc
# Summary of the method: as §1
# [5] = molecular target: Gal(b1-4)GlcNAc(b1-2)Man
# Summary of the method: as §1
# [6] = molecular target: Gal(b1-4)GlcNAc(b1-2)Man(a1-3)Man(b1-4)GlcNAc(b1-4)GlcNAc
# Summary of the method: as §1
# [7] = molecular target: Gal(b1-4)GlcNAc(b1-2)Man(a1-3)[Gal(b1-4)GlcNAc(b1-2)Man(a1-6)]Man(b1-4)GlcNAc(b1-4)GlcNAc
# Summary of the method: as §1
# [8] = molecular target: Gal(b1-4)GlcNAc(b1-2)Man(a1-3)[Gal(b1-4)GlcNAc(b1-2)Man(a1-6)]Man(b1-4)GlcNAc(b1-4)[Fuc(a1-6)]GlcNAc
# Summary of the method: as §1
# [9] = molecular target: Gal(b1-4)GlcNAc(b1-2)Man(a1-3)[Gal(b1-4)GlcNAc(b1-2)Man(a1-6)][Gal(b1-4)GlcNAc(b1-4)]Man(b1-4)GlcNAc(b1-4)[Fuc(a1-6)]GlcNAc
# Summary of the method: as §1
# [10] = molecular target: Gal(b1-4)GlcNAc(b1-2)Man(a1-3)[Gal(b1-4)GlcNAc(b1-2)Man(a1-6)][GlcNAc(b1-4)]Man(b1-4)GlcNAc(b1-4)[Fuc(a1-6)]GlcNAc
# Summary of the method: as §1
# [11] = molecular target: Gal(b1-4)GlcNAc(b1-2)Man(a1-3)[GlcNAc(b1-2)Man(a1-6)]Man(b1-4)GlcNAc(b1-4)GlcNAc
# Summary of the method: as §1
# [12] = molecular target: Gal(b1-4)GlcNAc(b1-2)Man(a1-3)[GlcNAc(b1-4)][Gal(b1-4)GlcNAc(b1-2)Man(a1-6)]Man(b1-4)GlcNAc(b1-4)GlcNAc
# Summary of the method: as §1
# [13] = molecular target: Gal(b1-4)GlcNAc(b1-2)Man(a1-3)[Man(a1-6)]Man(b1-4)GlcNAc(b1-4)GlcNAc
# Summary of the method: as §1
# [14] = molecular target: Gal(b1-4)GlcNAc(b1-2)Man(a1-6)Man(b1-4)GlcNAc(b1-4)GlcNAc
# Summary of the method: as §1
# [15] = molecular target: Gal(b1-4)GlcNAc(b1-2)Man(a1-6)[GlcNAc(b1-2)Man(a1-3)]Man(b1-4)GlcNAc(b1-4)GlcNAc
# Summary of the method: as §1
# [16] = molecular target: Gal(b1-4)GlcNAc(b1-2)Man(a1-6)[Man(a1-3)]Man(b1-4)GlcNAc(b1-4)GlcNAc
# Summary of the method: as §1
# [17] = molecular target: Gal(b1-4)GlcNAc(b1-2)[Gal(b1-4)GlcNAc(b1-4)]Man(a1-3)[Gal(b1-4)GlcNAc(b1-2)Man(a1-6)]Man(b1-4)GlcNAc(b1-4)GlcNAc
# Summary of the method: as §1
# [18] = molecular target: Gal(b1-4)GlcNAc(b1-2)[Gal(b1-4)GlcNAc(b1-4)]Man(a1-3)[Gal(b1-4)GlcNAc(b1-2)[Gal(b1-4)GlcNAc(b1-6)]Man(a1-6)]Man(b1-4)GlcNAc(b1-4)GlcNAc
# Summary of the method: as §1
# [19] = molecular target: Gal(b1-4)GlcNAc(b1-2)[Gal(b1-4)GlcNAc(b1-4)]Man(a1-3)[GlcNAc(b1-4)][Gal(b1-4)GlcNAc(b1-2)Man(a1-6)]Man(b1-4)GlcNAc(b1-4)GlcNAc
# Summary of the method: as §1
# [20] = molecular target: Gal(b1-4)GlcNAc(b1-2)[Gal(b1-4)GlcNAc(b1-4)]Man(a1-3)[GlcNAc(b1-4)][Gal(b1-4)GlcNAc(b1-2)[Gal(b1-4)GlcNAc(b1-6)]Man(a1-6)]Man(b1-4)GlcNAc(b1-4)GlcNAc
# Summary of the method: as §1
# [21] = molecular target: Gal(b1-4)GlcNAc(b1-2)[Gal(b1-4)GlcNAc(b1-6)]Man(a1-6)[Gal(b1-4)GlcNAc(b1-2)Man(a1-3)]Man(b1-4)GlcNAc(b1-4)GlcNAc
# Summary of the method: as §1
# [22] = molecular target: Gal(b1-4)GlcNAc(b1-2)[Gal(b1-4)GlcNAc(b1-6)]Man(a1-6)[Gal(b1-4)GlcNAc(b1-2)Man(a1-3)]Man(b1-4)GlcNAc(b1-4)[Fuc(a1-6)]GlcNAc
# Summary of the method: as §1
# [23] = molecular target: Gal(b1-4)GlcNAc(b1-2)[Gal(b1-4)GlcNAc(b1-6)]Man(a1-6)[GlcNAc(b1-4)][Gal(b1-4)GlcNAc(b1-2)Man(a1-3)]Man(b1-4)GlcNAc(b1-4)GlcNAc
# Summary of the method: as §1
# [24] = molecular target: Gal(b1-4)GlcNAc(b1-2)[Gal(b1-4)GlcNAc(b1-6)]Man(a1-6)[GlcNAc(b1-4)][Gal(b1-4)GlcNAc(b1-2)[Gal(b1-4)GlcNAc(b1-4)]Man(a1-3)]Man(b1-4)GlcNAc(b1-4)[Fuc(a1-6)]GlcNAc
# Summary of the method: as §1
# [25] = molecular target: Gal(b1-4)GlcNAc(b1-3)Gal(b1-3)GalNAc
# Summary of the method: as §1
# [26] = molecular target: Gal(b1-4)GlcNAc(b1-3)Gal(b1-3)GlcNAc
# Summary of the method: as §1
# [27] = molecular target: Gal(b1-4)GlcNAc(b1-3)Gal(b1-4)Glc
# Summary of the method: as §1
# [28] = molecular target: Gal(b1-4)GlcNAc(b1-3)Gal(b1-4)GlcNAc
# Summary of the method: as §1
# [29] = molecular target: Gal(b1-4)GlcNAc(b1-3)Gal(b1-4)GlcNAc(b1-2)Man(a1-3)[Gal(b1-4)GlcNAc(b1-3)Gal(b1-4)GlcNAc(b1-2)Man(a1-6)]Man(b1-4)GlcNAc(b1-4)GlcNAc
# Summary of the method: as §1
# [30] = molecular target: Gal(b1-4)GlcNAc(b1-3)Gal(b1-4)GlcNAc(b1-2)Man(a1-3)[Gal(b1-4)GlcNAc(b1-3)Gal(b1-4)GlcNAc(b1-2)Man(a1-6)]Man(b1-4)GlcNAc(b1-4)[Fuc(a1-6)]GlcNAc
# Summary of the method: as §1
# [31] = molecular target: Gal(b1-4)GlcNAc(b1-3)Gal(b1-4)GlcNAc(b1-2)[Gal(b1-4)GlcNAc(b1-3)Gal(b1-4)GlcNAc(b1-6)]Man(a1-6)[Gal(b1-4)GlcNAc(b1-3)Gal(b1-4)GlcNAc(b1-2)Man(a1-3)]Man(b1-4)GlcNAc(b1-4)GlcNAc
# Summary of the method: as §1
# [32] = molecular target: Gal(b1-4)GlcNAc(b1-3)Gal(b1-4)GlcNAc(b1-2)[Gal(b1-4)GlcNAc(b1-3)Gal(b1-4)GlcNAc(b1-6)]Man(a1-6)[Gal(b1-4)GlcNAc(b1-3)Gal(b1-4)GlcNAc(b1-2)Man(a1-3)]Man(b1-4)GlcNAc(b1-4)[Fuc(a1-6)]GlcNAc
# Summary of the method: as §1
# [33] = molecular target: Gal(b1-4)GlcNAc(b1-3)Gal(b1-4)GlcNAc(b1-3)Gal(b1-4)GlcNAc
# Summary of the method: as §1
# [34] = molecular target: Gal(b1-4)GlcNAc(b1-3)Gal(b1-4)GlcNAc(b1-3)Gal(b1-4)GlcNAc(b1-2)Man(a1-3)[Gal(b1-4)GlcNAc(b1-3)Gal(b1-4)GlcNAc(b1-3)Gal(b1-4)GlcNAc(b1-2)Man(a1-6)]Man(b1-4)GlcNAc(b1-4)GlcNAc
# Summary of the method: as §1
# [35] = molecular target: Gal(b1-4)GlcNAc(b1-3)Gal(b1-4)GlcNAc(b1-3)Gal(b1-4)GlcNAc(b1-2)Man(a1-3)[Gal(b1-4)GlcNAc(b1-3)Gal(b1-4)GlcNAc(b1-3)Gal(b1-4)GlcNAc(b1-2)Man(a1-6)]Man(b1-4)GlcNAc(b1-4)[Fuc(a1-6)]GlcNAc
# Summary of the method: as §1
# [36] = molecular target: Gal(b1-4)GlcNAc(b1-3)Gal(b1-4)GlcNAc(b1-3)Gal(b1-4)GlcNAc(b1-2)[Gal(b1-4)GlcNAc(b1-3)Gal(b1-4)GlcNAc(b1-3)Gal(b1-4)GlcNAc(b1-6)]Man(a1-6)[Gal(b1-4)GlcNAc(b1-3)Gal(b1-4)GlcNAc(b1-3)Gal(b1-4)GlcNAc(b1-2)Man(a1-3)]Man(b1-4)GlcNAc(b1-4)[Fuc(a1-6)]GlcNAc
# Summary of the method: as §1
# [37] = molecular target: Gal(b1-4)GlcNAc(b1-3)Gal(b1-4)GlcNAc(b1-3)Gal(b1-4)GlcNAc(b1-3)Gal(b1-4)GlcNAc(b1-2)Man(a1-3)[Gal(b1-4)GlcNAc(b1-3)Gal(b1-4)GlcNAc(b1-3)Gal(b1-4)GlcNAc(b1-3)Gal(b1-4)GlcNAc(b1-2)Man(a1-6)]Man(b1-4)GlcNAc(b1-4)GlcNAc
# Summary of the method: as §1
binder,measurement,setting,value
GS13971A-bth-447-22-447 (Bacteroides thetaiotaomicron) (protein) EDVDNERSKGMFSASQSGFSTIEVYDLGPLNKIDLSIAKAGLEDTGGTVTFSVEQSLLDSLNNADGTSYQLLPPECYTIENATYSVSPGGDRRVTGGSLVYDPHKIYNLCGFDELKYVLPLRVSSTGTPMNSDRTATLYGFIVKEAIVRLASTGGDFVVEGGTTTSPMNLDTEISFENEWDLTTSFATKGADYVDNYNSANSTYYIPLPSDFYTLPDVTIAKGKTTGGSAISLLGETLPPGNYLLPVSLGGLSGQGDASINIDKETVANYFVIKQGGPINRDHWTVTANTEEKTGEVSAAYPHNGQTISLIDGEINTFWHSKWQGGEVAPPYEIILDMGKENSVSQLGLIARQNALTSMNLEIYAGDDGETWNLIGKYFFDGSIKTEQMVPVKACDARWIRIYIPTLGSGSSVGHLAEIYVYGTDK,glycan array binding signal (z-score),[1],0.321
same,glycan array binding signal (z-score),[2],0.117
same,glycan array binding signal (z-score),[3],-0.679
same,glycan array binding signal (z-score),[4],0.525
same,glycan array binding signal (z-score),[5],0.536
same,glycan array binding signal (z-score),[6],-0.525
same,glycan array binding signal (z-score),[7],-1.03
same,glycan array binding signal (z-score),[8],-1.02
same,glycan array binding signal (z-score),[9],-0.704
same,glycan array binding signal (z-score),[10],-1.03
same,glycan array binding signal (z-score),[11],-1.02
same,glycan array binding signal (z-score),[12],-0.231
same,glycan array binding signal (z-score),[13],0.249
same,glycan array binding signal (z-score),[14],-0.242
same,glycan array binding signal (z-score),[15],-0.56
same,glycan array binding signal (z-score),[16],-0.174
same,glycan array binding signal (z-score),[17],1.31
same,glycan array binding signal (z-score),[18],-0.504
same,glycan array binding signal (z-score),[19],-0.902
same,glycan array binding signal (z-score),[20],-0.957
same,glycan array binding signal (z-score),[21],-0.704
same,glycan array binding signal (z-score),[22],0.053
same,glycan array binding signal (z-score),[23],-0.919
same,glycan array binding signal (z-score),[24],0.67
same,glycan array binding signal (z-score),[25],-0.104
same,glycan array binding signal (z-score),[26],0.498
same,glycan array binding signal (z-score),[27],0.593
same,glycan array binding signal (z-score),[28],-1.12
same,glycan array binding signal (z-score),[29],0.856
same,glycan array binding signal (z-score),[30],0.359
same,glycan array binding signal (z-score),[31],0.928
same,glycan array binding signal (z-score),[32],2.62
same,glycan array binding signal (z-score),[33],-0.169
same,glycan array binding signal (z-score),[34],1.88
same,glycan array binding signal (z-score),[35],-0.389
same,glycan array binding signal (z-score),[36],0.617
same,glycan array binding signal (z-score),[37],-0.267

# A different layout for part of the listing above:
binder	measurement	setting	value
GS13971A-bth-447-22-447 (Bacteroides thetaiotaomicron) (protein) EDVDNERSKGMFSASQSGFSTIEVYDLGPLNKIDLSIAKAGLEDTGGTVTFSVEQSLLDSLNNADGTSYQLLPPECYTIENATYSVSPGGDRRVTGGSLVYDPHKIYNLCGFDELKYVLPLRVSSTGTPMNSDRTATLYGFIVKEAIVRLASTGGDFVVEGGTTTSPMNLDTEISFENEWDLTTSFATKGADYVDNYNSANSTYYIPLPSDFYTLPDVTIAKGKTTGGSAISLLGETLPPGNYLLPVSLGGLSGQGDASINIDKETVANYFVIKQGGPINRDHWTVTANTEEKTGEVSAAYPHNGQTISLIDGEINTFWHSKWQGGEVAPPYEIILDMGKENSVSQLGLIARQNALTSMNLEIYAGDDGETWNLIGKYFFDGSIKTEQMVPVKACDARWIRIYIPTLGSGSSVGHLAEIYVYGTDK	glycan array binding signal (z-score)	[6]	-0.525
same	glycan array binding signal (z-score)	[7]	-1.03
